## Primary screen of a compound library

Sequences of proteins named here, by UniProt entry; tags and fusion partners are left off.
UniProt E9BF75, entry or part of it: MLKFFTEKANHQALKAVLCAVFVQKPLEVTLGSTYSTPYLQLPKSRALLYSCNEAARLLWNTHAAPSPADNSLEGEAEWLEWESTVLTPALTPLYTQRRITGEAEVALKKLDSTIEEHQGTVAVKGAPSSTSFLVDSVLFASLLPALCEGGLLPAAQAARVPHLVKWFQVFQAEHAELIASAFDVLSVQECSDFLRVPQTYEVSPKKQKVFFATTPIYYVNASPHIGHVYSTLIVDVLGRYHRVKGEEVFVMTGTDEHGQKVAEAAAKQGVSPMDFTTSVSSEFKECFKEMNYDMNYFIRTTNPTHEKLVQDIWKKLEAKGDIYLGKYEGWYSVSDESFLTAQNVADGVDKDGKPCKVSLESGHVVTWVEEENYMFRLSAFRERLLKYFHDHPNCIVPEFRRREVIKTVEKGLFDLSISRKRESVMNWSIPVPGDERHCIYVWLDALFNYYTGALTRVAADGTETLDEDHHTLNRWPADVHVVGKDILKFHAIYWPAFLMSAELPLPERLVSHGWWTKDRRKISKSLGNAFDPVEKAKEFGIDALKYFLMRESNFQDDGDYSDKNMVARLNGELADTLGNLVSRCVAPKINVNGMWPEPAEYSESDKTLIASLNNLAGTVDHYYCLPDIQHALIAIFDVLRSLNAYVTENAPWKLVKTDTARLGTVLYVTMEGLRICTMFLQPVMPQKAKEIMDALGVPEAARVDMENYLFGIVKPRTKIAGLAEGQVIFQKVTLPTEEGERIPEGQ

Measurements from “University of Dundee, Small-Polar-MMV Screening Library” (2021), ChEMBL document CHEMBL3988442.

Mtb heat-shock: 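Assay on Mycobacterium tuberculosis, filed only as a heat shock assay from Cornell; the read-out is not stated. The concentration is filed as 10 mM, unlikely as a test dose, so the dose is not known. Higher reads as stronger inhibition (inferred: compounds with an IC50 in retests scored well above the rest). Size under these conditions: about 69,000 compounds, about 930 of them at 50% or above in at least one test.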
Mtb growth Cornell: 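Whole-cell assay for inhibitors of Mycobacterium tuberculosis growth, labelled Cornell in the record; the read-out is not stated. The concentration is filed as 10 mM, unlikely as a test dose, so the dose is not known. Higher means stronger inhibition (inferred from two other growth screens of the library). About 53,000 compounds were tested under these conditions; 1.7% (about 900) showed 50% or more at least once.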
LdMetRS: 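Methionyl-tRNA synthetase (putative), Leishmania donovani (UniProt E9BF75). Primary screen of methionyl-tRNA synthetase; the read-out is not stated. The test concentration is not given. Values are per cent inhibition. Size under these conditions: about 68,000 compounds, about 24 of them at 50% or above in at least one test.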

Results are percentages, as filed.
The controls that fix the scale are not given in the record; negative values are as filed.
The compounds are a random part of those screened.

For Cc1[nH]c2c(F)cccc2c1CC(=O)N1CCN(C2CCSCC2)CC1 the result was Mtb heat-shock: -26.48%; Mtb growth Cornell: 11.76%; LdMetRS: 13.07%.
For [H][C@@]12CS(=O)(=O)C[C@]1([H])N(C(=O)c1cc(C(C)C)on1)CCN2CC1CC1 the result was Mtb heat-shock: -18.11%; Mtb growth Cornell: 4.873%.
For O=C(CCCn1cncn1)NC1CCc2nccn2C1 (stereo not given) the result was Mtb heat-shock: -6.739%; Mtb growth Cornell: -14.4%; LdMetRS: 3.073%.
For Cc1cc(N2CCC(N(C)C(=O)c3ccccc3)CC2)nc(C)n1 the result was Mtb heat-shock: -9.213%; Mtb growth Cornell: -6.263%; LdMetRS: 12.32%.
For Cc1cc(=O)n(CC(=O)NCCC(C)C)c(-c2cccc(Cl)c2)n1 the result was Mtb heat-shock: 9.879%; Mtb growth Cornell: 20.25%; LdMetRS: 13.39%.
For CCOc1cccc(CNC(C)c2ccc(-n3ccnc3)cc2)c1O (stereo not given) the result was Mtb heat-shock: -3.45%; Mtb growth Cornell: -32.71%; LdMetRS: 6.406%.
For Cn1nc2c(cc1=O)CN(CC1CCCCO1)CC2 (stereo not given) the result was Mtb heat-shock: 0.9613%; LdMetRS: 15.32%.
For CCc1nccn1CC(=O)Nc1cccc(C(=O)OC)c1 the result was Mtb heat-shock: -12.41%; Mtb growth Cornell: 12%; LdMetRS: 8.602%.
For CN1C(=O)C2(CCN(C(=O)c3ccccc3)CC2)c2cccc(F)c21 the result was LdMetRS: 13.49%.
For FC(F)(F)c1csc(N2CCN(Cc3ccccn3)CC2)n1 the result was Mtb heat-shock: 15.75%; Mtb growth Cornell: 26.28%; LdMetRS: 10.79%.
For NC(=O)c1cccc2nc([C@H]3CCN(Cc4ccccc4F)C3)[nH]c12 the result was Mtb heat-shock: -17.4%; Mtb growth Cornell: -4.877%; LdMetRS: 10.53%.
For CCOC(=O)c1n[nH]cc1-c1cncn1CCn1nc(C)c(C)c1C.Cl the result was Mtb heat-shock: -6.911%; Mtb growth Cornell: 10.58%.
For CCc1[nH]c2c(CNC(=O)C3CCC(=O)NC3)cc(C)cc2c1C (stereo not given) the result was Mtb heat-shock: 16.52%; Mtb growth Cornell: -1.91%; LdMetRS: 8.04%.
For N#CCC(=O)NCc1nnc2n1CCN(Cc1cccs1)C2 the result was Mtb heat-shock: -5.439%; Mtb growth Cornell: 7.814%; LdMetRS: 4.348%.
For CC(C)(C)c1cc(C(=O)NCCn2nc3ccccn3c2=O)[nH]n1 the result was Mtb heat-shock: 7.112%; Mtb growth Cornell: -27.63%; LdMetRS: 5.222%.
For CCCNCC1(O)CCCN(Cc2cccc(C)c2)C1=O (stereo not given) the result was Mtb heat-shock: -14.71%; Mtb growth Cornell: 15.15%; LdMetRS: 5.419%.
For O=C1CN(S(=O)(=O)CC(F)(F)F)CC(O)CN1CCCc1ccccc1 (stereo not given) the result was Mtb heat-shock: -6.774%; Mtb growth Cornell: 2.615%; LdMetRS: 9.459%.
For COc1nn(C)cc1C(=O)NCC(=O)Nc1cccnc1 the result was Mtb heat-shock: 7.667%; Mtb growth Cornell: 10.74%; LdMetRS: 12.23%.
For OC(c1cccs1)C1CCN(c2ncccn2)CC1 (stereo not given) the result was Mtb heat-shock: 28.45%; Mtb growth Cornell: 49.19%; LdMetRS: 17.63%.

Once more, the final 2:

SMILES,Mtb heat-shock,Mtb growth Cornell,LdMetRS
COc1nn(C)cc1C(=O)NCC(=O)Nc1cccnc1,7.667,10.74,12.23
OC(c1cccs1)C1CCN(c2ncccn2)CC1 (stereo not given),28.45,49.19,17.63